From PubChem BioAssay AID2685 (National Center for Advancing Translational Sciences (NCATS), 2010)
The other results are listed elsewhere or left out. Further columns of the screen follow, without active or inactive calls. Compounds called inactive in the main read-out are mostly missing here. The note in brackets gives the kind of curve behind each potency; many fits are weak.

Assay: qHTS Assay for Lipid Storage Modulators in Drosophila S3 Cells;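 on cell number change: cells counted by Cell Tracker Red CMTPX staining in the red channel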
Conditions: BODIPY lipid droplet fluorescence, 18-24 h; for cell number change: measured here: cell count max response, cells fed with added oleic acid
In short: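 Drosophila S3 cells got compounds at several concentrations plus oleic acid (400 uM solution). Laser-scanning cytometry with 488 nm excitation read lipid droplets at 500-530 nm and cells at 575-640 nm. Percent activity was relative to 20 uM Triacsin C.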

[1] = measured here: lipid fluorescence (Fed channel) AC50, cells fed with added oleic acid
[2] = measured here: cell number channel AC50, cells fed with added oleic acid

| Structure (SMILES) | cell number change [%] | AC50 [1] | AC50 [2] |
| --- | --- | --- | --- |
| Cc1ccc(OCC(O)CN2C(=O)NC(C)(C)C2=O)cc1C (stereo not drawn) | 4.72 | 18400 nM [falling, partial curve] |  |
| CN(c1ccccc1)S(=O)(=O)c1ccc(C(=O)NCC2CCCO2)cc1 (stereo not drawn) |  | 6510 nM [falling, partial curve, poor fit] |  |
| CCn1c(SCC(=O)NNC(=O)Cc2ccccc2)nnc1-c1ccncc1 | 5.76 | 1640 nM [falling, partial curve] |  |
| S=C1CCSc2ccc(Cl)cc2N1 | 4.22 | 164 nM [rising, full curve, poor fit] |  |
| Cc1ccccc1Cn1c(CN2CCN(c3ccc(F)cc3)CC2)nc2c1c(=O)n(C)c(=O)n2C | -0.195 | 103 nM [rising, partial curve, poor fit] |  |
| O=C(Nc1ccccn1)c1cc(-c2cccc(Cl)c2)nc2ccccc12 | 0.615 | 580 nM [falling, full curve] | 1160 nM [falling, full curve] |
| COc1ccc(C(=O)CCC(=O)Nc2cccnc2)c(OC)c1 | -6.25 | 25900 nM [rising, single point] |  |
| O=C(Nc1ccccc1)Nc1csc2ccccc12 | -29.5 | 16400 nM [falling, single point] |  |
| C=CCn1c(SCC(=O)Nc2sccc2C(N)=O)nc2ccccc2c1=O | -60.7 | 130 nM [rising, full curve, poor fit] |  |
| COC(=O)c1cccc(NC(=S)NCCC2=CCCCC2)c1 | -13.6 | 103 nM [falling, full curve, poor fit] |  |
| CC(/C=C/c1ccccc1)=N\Nc1nc2c(c(=O)[nH]c(=O)n2C)n1CCO | 2.31 | 2310 nM [rising, partial curve, poor fit] |  |
| COC(=O)C1=C(C)N(C)C(C)=C(C(=O)OC)C1c1ccncc1 | 19.5 | 20600 nM [rising, single point] |  |
| COc1ccc(CC(=O)NNS(=O)(=O)c2ccccc2[N+](=O)[O-])cc1 | 14.5 |  | 32.6 nM [rising, full curve, poor fit] |
| OCCN(CCCn1c(-c2ccncc2)nc2ccccc21)c1nc(CN2CCCCC2)cs1 | 12.3 | 3660 nM [falling, full curve, poor fit] |  |
| CSc1cccc(NS(=O)(=O)c2ccc(C(C)=O)cc2)c1 | -9.36 | 4110 nM [falling, single point] |  |
| O=[N+]([O-])c1ccccc1N/N=C/c1c[nH]c2ccccc12 | -98 |  | 20600 nM [falling, partial curve] |
| CCOC(=O)Cc1csc(NC(=O)c2sc3nc4ccc(CC)cc4cc3c2N)n1 | 104 | 1460 nM [falling, partial curve] | 20600 nM [rising, partial curve] |
| Cc1c(NC(=O)c2cc(-c3ccc(Br)cc3)on2)c(=O)n(-c2ccccc2)n1C | 23 |  |  |
| CCN(CC)C(=O)c1[nH]cnc1C(=O)Nc1ccc(C)cc1 | -22.3 | 130 nM [rising, single point] |  |
| CCOC(=O)/C(C#N)=C1/C=Cc2ccccc2N1CC | -26.2 |  |  |

| Structure (SMILES) | cell number change [%] | AC50 [1] | AC50 [2] |
| --- | --- | --- | --- |
| CCOC(=O)c1cc(-c2ccccc2)sc1NC(=O)CN1C(=O)NC(CC)(c2ccccc2)C1=O (stereo not drawn) | 49 | 4110 nM [rising, partial curve] | 2910 nM [rising, full curve] |
| O=C(CSc1nnc2ccccn12)Nc1ccccc1C(=O)NC1CC1 |  | 18400 nM [rising, partial curve, poor fit] |  |
| CCOC(=O)c1sc2nc3c(SCCC(=O)O)cc(C(=O)c4cc(OC)ccc4O)cn3c(=O)c2c1C | 9.94 |  |  |
| CCN1CCN(CC(=O)N2N=C(c3cccs3)CC2c2ccc(C)cc2)C(=O)C1=O (stereo not drawn) | 3.69 | 4.61 nM [falling, full curve, poor fit] | 4.61 nM [falling, full curve, poor fit] |
| CC(C)N(C(=O)NC(=O)Nc1ccc(S(=O)(=O)N2CCCC2)cc1)S(C)(=O)=O | -19.8 |  |  |
| CC(C)(C)c1ccccc1NC(=O)c1ccc(-n2cncn2)c([N+](=O)[O-])c1 | 31.2 |  | 29100 nM [rising, single point] |
| CCn1c(SCC(=O)Nc2nccs2)nnc1C1CC1 | -6.35 | 130 nM [rising, full curve] |  |
| CCn1cc(C(=O)NCCc2ccccc2)c(=O)c2cc(S(=O)(=O)N(C)C)ccc21 | 9.56 | 580 nM [falling, full curve] |  |
| CCOC(=O)c1sc(NC(=O)C(C)Sc2nc(N)cc(=O)[nH]2)nc1C (stereo not drawn) | 62.3 |  | 4610 nM [rising, full curve] |
| Cc1ccccc1NC(=O)CSc1n[nH]c(-c2ccccn2)n1 | -26.2 | 29100 nM [falling, partial curve] |  |
| CCc1ccc(CNC(=O)C2CC(=O)N(CCc3ccc(C)cc3)C2)cc1 (stereo not drawn) | 76.6 | 4.61 nM [rising, full curve, poor fit] | 23100 nM [rising, partial curve] |
| CCOc1cccc2sc(N(CCN(CC)CC)C(=O)c3ccc(S(=O)(=O)N4CCCCC4)cc3)nc12 | -6.95 | 184 nM [falling, full curve, poor fit] |  |
| CC(=O)OCCCN1C(=O)c2cccc3cc(Br)cc(c23)C1=O | -26 | 29100 nM [falling, single point] |  |
| CCOC(=O)CN(C(=O)CSc1nnc2c(n1)[nH]c1ccc(F)cc12)c1ccccc1 | -68.6 | 2060 nM [falling, full curve] | 4110 nM [falling, partial curve] |
| CC(Oc1ccc(Cl)cc1Cl)/C(N)=N/O (stereo not drawn) | 0.504 | 4.61 nM [falling, full curve, poor fit] |  |
| COC(=O)CSc1nnc2c3c4c(sc3nc(-n3nc(C)cc3C)n12)COC(C)(C)C4 | 3.54 |  |  |
| COCCn1c(=NC(=O)c2ccc(S(=O)(=O)N3CCc4ccccc4C3)cc2)sc2cc(OC)ccc21 | 34.5 | 2060 nM [rising, full curve] | 2590 nM [rising, full curve] |
| COC(=O)c1ccc(NC(=O)C(=O)c2c[nH]c3ccccc23)cc1 | 23.1 | 16400 nM [rising, partial curve, poor fit] |  |
| Cc1cccc(OCC(=O)NNC(=O)c2ccc3nc[nH]c3c2)c1 | -7.64 | 4.61 nM [rising, full curve, poor fit] |  |
| O=C1CS/C(=C/C(=O)c2cccc(Cl)c2)N1 | 40.9 | 6510 nM [rising, single point] | 2310 nM [rising, full curve] |

| Structure (SMILES) | cell number change [%] | AC50 [1] | AC50 [2] |
| --- | --- | --- | --- |
| O=C(Cc1csc(-c2ccc(F)cc2)n1)Nc1cccc(S(=O)(=O)NC2=NCCC2)c1 | 15.3 | 20600 nM [falling, single point] |  |
| CN(C(=O)c1ccc2c(c1)OCO2)C1CCS(=O)(=O)C1 (stereo not drawn) | -43.7 | 23100 nM [falling, partial curve] | 11600 nM [falling, partial curve, poor fit] |
| CCOC(=O)c1c(NC(=O)CN2C(=O)NC3(CCCC3)C2=O)sc(C)c1CC | -21.9 |  |  |
| CCN(CC)c1cc(C)c2cc(NC(=O)c3ccccc3F)ccc2n1 | 16.7 |  |  |
| CCOC(=O)Nc1nnc(-c2cccc(OC)c2)s1 | 65.8 |  | 29100 nM [rising, single point] |
| CCN(CC)S(=O)(=O)c1ccc(N2CCOCC2)c(NC(=O)c2ccc(F)cc2)c1 | 45.5 | 20600 nM [rising, single point] | 32600 nM [rising, single point] |
| COc1ccccc1N1CCN(C(=O)NC23CC4CC(CC(C4)C2)C3)CC1 | -4.78 |  |  |
| CC(=O)N/C(=C/c1ccccc1)c1ccccc1 | -21.3 | 2310 nM [rising, partial curve] |  |
| Cc1oc(-c2ccc(Cl)cc2)nc1CN1CCC(C(=O)NCCCN2CCCC(C)C2)CC1 (stereo not drawn) |  | 580 nM [rising, partial curve] |  |
| CCOc1cc(/C=N/NC(=O)c2nn(C)cc2Br)ccc1OCc1ccccc1 |  | 20600 nM [rising, partial curve] | 3260 nM [rising, single point] |
| COc1ccc(C(C(=O)NCc2ccccc2)N(C(=O)c2snc(C(N)=O)c2N)C2CCCC2)cc1O (stereo not drawn) | 10.3 |  |  |
| O=C(O)COc1ccc(/C=N/NC(=O)C2CCCN2S(=O)(=O)c2ccc(Cl)cc2)cc1 (stereo not drawn) |  |  | 731 nM [falling, single point] |
| CCCCC(=O)NCc1ccccc1Cl | -15 |  |  |
| O=C(Nc1nnc(CCc2ccccc2)s1)c1cccs1 | -2.66 |  |  |
| CCOC(=O)C1CCCN(C(=O)c2cc3c(=O)n(C)c4ccccc4c3n2C)C1 (stereo not drawn) | -33 | 8200 nM [falling, partial curve] | 5170 nM [falling, partial curve, poor fit] |
| C=CCN1C(=O)c2ccc(C(=O)N(C)CC(=O)Nc3ccccc3C(F)(F)F)cc2C1=O | -11.1 | 366 nM [falling, full curve, poor fit] |  |
| CCc1cc(=O)oc2cc(OC(C)C(=O)NCCCn3ccnc3)ccc12 (stereo not drawn) | 22 |  |  |
| O=C(COC(=O)c1ccc2c(c1)OCCO2)NCc1ccccc1 | 11.9 | 4.61 nM [falling, full curve, poor fit] |  |
| C=C(C)COc1ccc(-c2ncncc2-c2ccccc2)c(O)c1 | 0.472 | 651 nM [falling, full curve, poor fit] |  |

Exported as comma-separated lines: 12 of the compounds above
Structure (SMILES),cell number change [%],AC50 [1],AC50 [2]
COC(=O)c1ccc(NC(=O)C(=O)c2c[nH]c3ccccc23)cc1,23.1,"16400 nM [rising, partial curve, poor fit]",
Cc1cccc(OCC(=O)NNC(=O)c2ccc3nc[nH]c3c2)c1,-7.64,"4.61 nM [rising, full curve, poor fit]",
O=C1CS/C(=C/C(=O)c2cccc(Cl)c2)N1,40.9,"6510 nM [rising, single point]","2310 nM [rising, full curve]"
O=C(Cc1csc(-c2ccc(F)cc2)n1)Nc1cccc(S(=O)(=O)NC2=NCCC2)c1,15.3,"20600 nM [falling, single point]",
CN(C(=O)c1ccc2c(c1)OCO2)C1CCS(=O)(=O)C1 (stereo not drawn),-43.7,"23100 nM [falling, partial curve]","11600 nM [falling, partial curve, poor fit]"
CCOC(=O)c1c(NC(=O)CN2C(=O)NC3(CCCC3)C2=O)sc(C)c1CC,-21.9,,
CCN(CC)c1cc(C)c2cc(NC(=O)c3ccccc3F)ccc2n1,16.7,,
CCOC(=O)Nc1nnc(-c2cccc(OC)c2)s1,65.8,,"29100 nM [rising, single point]"
CCN(CC)S(=O)(=O)c1ccc(N2CCOCC2)c(NC(=O)c2ccc(F)cc2)c1,45.5,"20600 nM [rising, single point]","32600 nM [rising, single point]"
COc1ccccc1N1CCN(C(=O)NC23CC4CC(CC(C4)C2)C3)CC1,-4.78,,
CC(=O)N/C(=C/c1ccccc1)c1ccccc1,-21.3,"2310 nM [rising, partial curve]",
Cc1oc(-c2ccc(Cl)cc2)nc1CN1CCC(C(=O)NCCCN2CCCC(C)C2)CC1 (stereo not drawn),,"580 nM [rising, partial curve]",
